Test results from PubChem BioAssay AID1508600 (Functional Genomics Laboratory (NCATS/FGL), 2020).
About 3,700 (7%) of roughly 53,000 sequences were called active.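 Rule for the calls: active = gene knockdowns whose robust z-score for IL-1 alpha signal is at least 2 or at most -2, so actives lie on both sides; inactive = the rest.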 This is one part of the list.

Assay: Components of the Cytosolic LPS Sensing Pathway: Gene Identification via Genome-wide siRNA Screen;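 note: robust z of the log signal after scaling to non-targeting control siRNA wells of the plate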
Conditions: RAW264.7 macrophages, IL-1a HTRF, actives lie on both sides, screened at 100 nM (by protocol), cells primed 5 h with Pam3CSK4 first
Procedure, shortened: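 RAW264.7 mouse macrophages reverse-transfected with single siRNAs (100 nM final) for 48h, primed with Pam3CSK4 for 5 hours, then transfected with LipidA for 24 hour. Supernatant IL-1a read by HTRF; values normalized to negative-control median, log-transformed robust z-scores.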

Sequence	z-score
GCUGGUCUAAUCUGGAAACTT against Tmed3	inactive: -1.73
CGGAUGCCAUGCAGAACUATT against Tspan7	inactive: 0.22
GGAAAAUGAGAGAUUACGATT against Cntln	inactive: 1.32
GGCCAUUUUGGAUCAUACATT against Actl6a	inactive: -1.06
GGUUUGAGUGGAAAAUUCATT against Csn1s2b	inactive: 0.904
GCUUUCGGUGGAUUCCUUATT against Rars2	inactive: -0.714
GGACUACAGAUGCAUACCATT against 9830163H01Rik	inactive: -0.234
GGCAUGUUUGAGUUUCAGATT against Lsm4	inactive: -0.22
GGCAAUGAGAAAGUUACUCTT against Olfr1102	inactive: 1.65
GGAUCUGAAAGACUAUUUCTT against Tardbp	inactive: -0.956
GGGACACCUUCCGUAACUATT against Gcdh	inactive: -0.832
GCUCACACUUUAAAGAGGGTT against Supv3l1	inactive: 0.524
GGAUAUGGCCCAGUUCAUATT against Gfer	inactive: -1.16
CCAGUCCUUGAAAAGAGCUTT against Olfr128	active: -2.35
GGAAAUUGGCACCAUUACUTT against St3gal1	active: 2.14
CCAAUCGUAAUGACAAUUCTT against Myo1d	inactive: -0.857
GGAAAGGAUACGAGACAAUTT against Kctd2	inactive: 1.35
GACAGUGAUCACUUGUGGUTT against Ly6g6d	inactive: -0.369
GCUUUGAUUCAUAAACAAGTT against Rmi1	inactive: -0.585
GGUGGUGAAACUCAAGAUCTT against Zfp771	inactive: -0.983
GGUACAACUGUAAAUAUUCTT against Npc1	inactive: 0.0905
GCUAAGAAACUGGUCUCAUTT against Reg4	inactive: -0.151

Sequence	z-score
GGAUUUGUUUUCAGAUGUGTT against Zfp329	inactive: -1.56
GGAAGAUUCCUUAACCAAGTT against Setmar	inactive: 0.214
GCCUAUCAUCGAGUGUGUATT against Gphb5	inactive: 0.471
GGUAUCUGCAUGUCUUAAUTT against Snx14	inactive: 0.338
CCGAUAUGUGAAAAUUAAGTT against Rpl32	inactive: 0.673
GGAAUAUACGAAUCACAGATT against Tmprss12	inactive: -1.11
GGAAUUGAAAUGUCAGAAGTT against Pex2	inactive: -0.989
GCUUGUUUACAUCGGACUUTT against Samt2	inactive: 0.9
GUGCUAUGUGAAGAGCAGCTT against Klri1	inactive: 0.419
GGAAAACGUGAUUUACACATT against Fcrl5	inactive: 0.236
GCAAAAUGGGAUUUGUCAUTT against Grm1	inactive: -0.448
GGCUGAGAUCUAGCUUACATT against H3c15	active: -3.21
CCAAGUCCAGCCUUUUGGUTT against Acsm1	inactive: 0.295
GGUUACCUCAUUUGACGGATT against BC048671	inactive: -0.731
GGAUGAAAGAGUUUCUGCATT against Spin1	inactive: -0.945
GGCUUUAACUAAUUAUGGATT against Pcm1	inactive: -0.649
GGCGCAGUAAAGAGGAGAUTT against Ccnb3	inactive: 1.4
GGAAGUCGGGCAAAUACAATT against Tacstd2	active: 5.77
GGUCAAACUGAAGAAGGAGTT against Slc7a7	inactive: -1.24
GCUGCUGAGGUACUUGCUATT against Pcsk1n	inactive: -0.98
GGAUACUGUAAGGAAUAAUTT against Orc4	inactive: -1.23
CCAUUGAUCUCGUCUCCCATT against Impdh1	inactive: -0.647

Sequence	z-score
CGAGUUAAGUAACAGGACATT against Mmgt2	inactive: 1.44
GCUUUUCUUCUUCAUCUCUTT against Olfr1336	inactive: 0.698
GAGUCAAAACAGCAGUGCATT against Cpsf4	inactive: -0.27
GGGAGAGGAUCAGGUAAACTT against Chp1	inactive: -0.49
UAAAAAUGAGCCGGGCAAUTT against Ms4a5	inactive: 1.42
GGAGUUUCUGGAUGGUGGUTT against Prxl2b	inactive: -0.168
GGACUUCAAGUGGCUGAAGTT against St3gal3	inactive: 1.09
GGUCCUUUACAUGAACCGCTT against Vps18	inactive: -0.661
GGCAAACCUGCUUUCAUGGTT against Smc5	inactive: 0.282
GGUCAUGUACAAGAAAACCTT against Wfikkn2	inactive: -0.633
GGACCAAAACACUACCAAUTT against Tinag	inactive: 0.648
GGCCUUCAGCACUUGUGUGTT against Olfr585	inactive: -1.33
GGAUAUCACAUUUGUUGCUTT against Anapc4	inactive: 0.888
GGUCACGAUGUAGCACGCUTT against Mtg1	inactive: 0.996
GGUAAAGAUCUGGAGACGATT against Pgam1	inactive: -0.727
GGCAAAUCUGAACAACAUUTT against Agt	inactive: 1.16
GGCUUUGAACACCAGUGAATT against Rpp21	inactive: -0.453
GGAAUGUCUCUCUGAAAUATT against Greb1	inactive: 0.957
GGUAUUUCACUGGAAGACUTT against Trdmt1	inactive: 0.0369
GCAGCUUGCUUGAUUCAAGTT against Iqcb1	inactive: 0.424
CGUUUUGUAUAUAUCUGACTT against Kdm6a	inactive: -1.17
GUUUGGCCGAGUUCAUUUCTT against Pigu	inactive: 0.759

Sequence	z-score
CCAUCUCAUUCCUUACCAGTT against Gm4736	inactive: -1.79
GGCGUACAGGCAAAAAGCATT against Dnajc17	inactive: -0.4
GGAACAGACAGAGAACACATT against Tgm6	active: 2.54
GGAGCACCUUCAGAAAGUUTT against Commd5	inactive: -0.604
GGUUACAUCAUCUUAACACTT against Pif1	inactive: -0.368
GGCAAAAACGCGAUGAAGATT against Sync	inactive: -0.556
CGCGGGAUGAAGGAUAUAATT against Gm11541	inactive: 0.114
GGAUUAUUCCCUUUCUUCCTT against Sh3pxd2a	inactive: 0.807
GGCCAUCAGGUGCAAACUATT against Enc1	inactive: -0.315
CCUACUCGUCUCUUUCACCTT against Tlcd1	inactive: 0.158
GCCAGGGUAACUCUCUAGATT against 9130008F23Rik	inactive: -0.715
GGACCUCCGCAUACGAAGATT against Slc12a5	inactive: -0.216
GGUCAAAAUAGUGUCCACCTT against Olfr628	inactive: 1.43
GGCGUGUCUGUAAAAUCUUTT against Exo5	inactive: 0.656
GGCUCUGCACAACCUUCUATT against 4932435O22Rik	inactive: -0.048
CCUGUGCCUCGCGUCUUAATT against Gdf3	inactive: 0.0375
GGUUGUAACAAACAUACUCTT against Sstr4	active: 2.99
GGAAAAGGGUCGUGCCUGUTT against Gm9991	inactive: -0.07
GGUCAUUCCCAAAAGCAAGTT against Erp29	inactive: -0.151
GGACAUUGCAUUGCUCAUGTT against Sec1	inactive: -0.526
GGAGUUUGCCGGAAGACUCTT against Ntf3	inactive: 1.08
GCCGCUUAAGAGGGAUUAUTT against Mrpl15	inactive: -0.394

Random excerpt: 6 entries already listed.
Sequence	z-score
GGAUUAUUCCCUUUCUUCCTT against Sh3pxd2a	inactive: 0.807
GGACAUUGCAUUGCUCAUGTT against Sec1	inactive: -0.526
CCUACUCGUCUCUUUCACCTT against Tlcd1	inactive: 0.158
GGUCAUUCCCAAAAGCAAGTT against Erp29	inactive: -0.151
GGAGUUUGCCGGAAGACUCTT against Ntf3	inactive: 1.08
CCAUCUCAUUCCUUACCAGTT against Gm4736	inactive: -1.79

Following part

Sequence	z-score
GCUUUUACACUAAUCUAGCTT against Senp8	inactive: 0.281
GGAAAAAUGUGGACUUCUUTT against Bhmt2	inactive: 0.511
GGUCCUAUUCCUACCAUUCTT against Zfp677	inactive: -0.86
GUGAAGAAAUGUUUGACACTT against Raet1b	inactive: 0.254
GGAGGUCCCUCAUUUCAAGTT against Grik4	inactive: -0.0486
GCCUUCAAGACCACAUCCATT against Chst5	inactive: 1.32
CGACCUCGUCUACAUCUCCTT against Lingo1	inactive: 1.49
CCCGAGCCUCAAGAUUUACTT against Ccdc134	inactive: 0.392
GGCAUCUAUUUCUGUGUCUTT against Rdh5	inactive: -1.27
GGAUCCAUAAUGUGCAAAATT against Musk	inactive: -0.7
GCACAUAGAAACGUGUUGGTT against Fnbp1	inactive: -0.213
GGACCACCAAGAGGAAGUGTT against Cd300lf	inactive: -1.03
GGUGGAUAUUCCAUCUAUUTT against Snx14	active: 2.76
CGAUAUCAAGAGUGCAUGATT against Gas6	active: 2.97
GCCUAAGCGAAAGUCUCUCTT against Rassf8	inactive: 0.95
GGUCGAUGCAAAGAUGCUGTT against Smoc1	inactive: 0.811
GGACACCAUAUGGUUAGCUTT against Tedc1	active: -2.25
GGAGAUGUUGCCAAAAACUTT against Sprr2d	inactive: -1.31
GGAUAUUUUGGACUCCUUATT against Ephx4	inactive: 0.387

Already shown: an excerpt of the list.
Sequence	z-score
CGAUAUCAAGAGUGCAUGATT against Gas6	active: 2.97
GCCUAAGCGAAAGUCUCUCTT against Rassf8	inactive: 0.95
